In this data set the test system is Iron Responsive Protein (IRP). The experiment in a line: EMSA. The following applies: IRE length (28 or 51 nt) used in this figure not stated; disrupted only at very high compound 1 (5.5 mM); label: 3' biotin. Background: In EMSA bound probe runs differently from free probe, usually more slowly.

Construct, isoform or probe ends are uncertain for at least one entry.

As for “UCCUGCUUCAACAGUGCUUGGACGGAAC [IRE 28nt biotin]”, the binding result is on record as “binds”.
